{"source": "PubChem BioAssay AID2685", "about": "(National Center for Advancing Translational Sciences (NCATS), 2010)", "assay": "qHTS Assay for Lipid Storage Modulators in Drosophila S3 Cells;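 on cell number change: cells counted by Cell Tracker Red CMTPX staining in the red channel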", "conditions": "BODIPY lipid droplet fluorescence, 18-24 h; for cell number change: measured here: cell count max response, cells fed with added oleic acid", "procedure,_shortened": "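Laser-scanning cytometry quantifies lipid droplet accumulation (500–530 nm total intensity; droplet/cell object ratio) in oleic acid-fed (400 uM added) Drosophila S3 cells treated with a concentration series. 20 uM Triacsin C defined 100% inhibition.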", "key": {"[1]": {"conditions": "measured here: lipid fluorescence (Fed channel) AC50, cells fed with added oleic acid"}, "[2]": {"conditions": "measured here: cell number channel AC50, cells fed with added oleic acid"}}, "note": "This is one part of the list. These are further read-outs of the screen, such as a control signal, another cell line or another target. No call is given for them. Compounds called inactive in the main read-out are mostly missing here. Potencies come from curve fits of mixed quality, noted in brackets."}
{"smiles": "CC(C)(C)C1CCc2onc(C(=O)Nc3ccc4c(c3)OCO4)c2C1", "note": "(stereo not given)", "values": [{"measurement": "cell number change", "value": 20, "unit": "%"}, {"measurement": "AC50", "setting": "[1]", "value": "1160 nM [falling, single point]"}]}
{"smiles": "O=C(O)c1cc(O)ccc1NC(=O)C(c1ccccc1)c1ccccc1", "values": [{"measurement": "cell number change", "value": 23.9, "unit": "%"}, {"measurement": "AC50", "setting": "[1]", "value": "580 nM [rising, single point]"}]}
{"smiles": "N#C/C(=C(/O)COC(=O)c1ccc2c(c1)OCCO2)c1nc2ccccc2[nH]1", "values": [{"measurement": "cell number change", "value": 1.95, "unit": "%"}, {"measurement": "AC50", "setting": "[1]", "value": "2310 nM [falling, single point]"}]}
{"smiles": "COc1ccc(NS(=O)(=O)c2ccc(Oc3ncccn3)cc2)cc1", "values": [{"measurement": "cell number change", "value": -6.98, "unit": "%"}, {"measurement": "AC50", "setting": "[1]", "value": "2310 nM [rising, full curve]"}]}
{"smiles": "COc1ccc(C(=O)NCCc2nc3cc([N+](=O)[O-])ccc3n2C)cc1", "values": [{"measurement": "cell number change", "value": 17.9, "unit": "%"}, {"measurement": "AC50", "setting": "[2]", "value": "2310 nM [rising, single point]"}]}
{"smiles": "O=C(Nc1ccccc1-c1ccccc1)c1ccccc1", "values": [{"measurement": "cell number change", "value": -1.67, "unit": "%"}, {"measurement": "AC50", "setting": "[1]", "value": "14600 nM [falling, single point]"}]}
{"smiles": "CCOC(=O)c1cnc(Nc2ccccc2)nc1C(F)(F)F", "values": [{"measurement": "cell number change", "value": -19.3, "unit": "%"}, {"measurement": "AC50", "setting": "[2]", "value": "92 nM [falling, full curve, poor fit]"}]}
{"smiles": "CCCc1cc(C(=O)NCc2cccnc2)no1", "values": [{"measurement": "cell number change", "value": 41.5, "unit": "%"}, {"measurement": "AC50", "setting": "[2]", "value": "29100 nM [rising, single point]"}]}
{"smiles": "Cc1c(C(=O)NCCc2ccccc2)oc2ccc(S(=O)(=O)N3CCOCC3)cc12", "values": [{"measurement": "cell number change", "value": -39.9, "unit": "%"}, {"measurement": "AC50", "setting": "[2]", "value": "29100 nM [falling, single point]"}]}
{"smiles": "Cc1[nH]c2ccccc2c1C(c1ccccn1)N1CCCC1", "note": "(stereo not given)", "values": [{"measurement": "cell number change", "value": 56, "unit": "%"}, {"measurement": "AC50", "setting": "[2]", "value": "18400 nM [rising, partial curve, poor fit]"}]}
{"smiles": "CC(=O)Nc1sc(N)nc1-c1ccccc1", "values": [{"measurement": "AC50", "setting": "[2]", "value": "4110 nM [rising, partial curve]"}, {"measurement": "AC50", "setting": "[1]", "value": "14.6 nM [falling, full curve, poor fit]"}]}
{"smiles": "Cc1ccccc1NC(=O)Cc1nc(COC(=O)Cc2ccccc2F)cs1", "values": [{"measurement": "cell number change", "value": -11, "unit": "%"}]}
{"smiles": "O=C(Cn1c(=O)oc2cc(S(=O)(=O)N3CCCC3)ccc21)N1CCCC1", "values": [{"measurement": "cell number change", "value": -32.2, "unit": "%"}, {"measurement": "AC50", "setting": "[2]", "value": "14600 nM [falling, partial curve, poor fit]"}]}
{"smiles": "Cc1ccccc1-n1nc(C(=O)O)c(C)c(C#N)c1=O", "values": [{"measurement": "cell number change", "value": -37.6, "unit": "%"}, {"measurement": "AC50", "setting": "[2]", "value": "29100 nM [falling, single point]"}, {"measurement": "AC50", "setting": "[1]", "value": "29100 nM [falling, single point]"}]}
{"smiles": "CN(C)S(=O)(=O)c1cccc(NC(=O)COc2cccc3ccccc23)c1", "values": [{"measurement": "cell number change", "value": -25.3, "unit": "%"}, {"measurement": "AC50", "setting": "[1]", "value": "411 nM [rising, partial curve, poor fit]"}]}
{"smiles": "CCOC(=O)/C=C1\\SCC(=O)N1CC(=O)NC1CCCCC1", "values": [{"measurement": "cell number change", "value": 17.3, "unit": "%"}, {"measurement": "AC50", "setting": "[1]", "value": "1030 nM [falling, single point]"}]}
{"smiles": "CCOC(=O)c1ccc(N2C(=O)C=C(N3CCOCC3)C2=O)cc1", "values": [{"measurement": "cell number change", "value": -31.2, "unit": "%"}, {"measurement": "AC50", "setting": "[2]", "value": "130 nM [falling, full curve, poor fit]"}, {"measurement": "AC50", "setting": "[1]", "value": "130 nM [falling, full curve, poor fit]"}]}
